Patent publication EP4603500A1, “PEPTIDE HAVING ACTIVITY IN PROMOTING HAIR GROWTH AND SUPPRESSING HAIR LOSS, AND USE THEREOF” (Caregen Co., Ltd., priority 2022, dated 2024)
At least one peptide structure holds a part that was inferred or is arguable (an end, a ring closure or a residue). No end group written: not given here.

Assays:
[1] = test system: human hair follicle dermal papilla cells (HHFDPCs); test: Proliferation of human hair follicle dermal papilla cells (MTT assay); type: cell-based; conditions: 10 µM and 100 µM, 72 hours, compared to the negative control (con); FIG. 1
[2] = test system: human hair outer root sheath cells (HHORSCs); test: Proliferation of human hair outer root sheath cells (MTT assay); type: cell-based; conditions: 50 µM and 100 µM, 72 hours, compared to the negative control group (con); FIG. 2
[3] = test system: lymphoid enhancer-binding factor 1 (LEF-1); test: Expression of beta-catenin downstream gene LEF-1 in HHFDPCs (RT-PCR); type: cell-based, human; conditions: 10 µM, 50 µM, and 100 µM, 24 hours, FIGS. 3a and 3b
Cyclin D1 = test: Expression of beta-catenin downstream gene Cyclin D1 in HHFDPCs (RT-PCR); type: cell-based, human; conditions: 10 µM, 50 µM, and 100 µM, 24 hours, FIGS. 3a and 3b
bFGF = test: Expression of growth factor bFGF in HHFDPCs (RT-PCR); type: cell-based, human; conditions: 10 µM, 50 µM, and 100 µM, 24 hours, FIGS. 4a and 4b
HGF = test: Expression of growth factor HGF in HHFDPCs (RT-PCR); type: cell-based, human; conditions: 10 µM, 50 µM, and 100 µM, 24 hours, FIGS. 4a and 4b
VEGF = test: Expression of growth factor VEGF in HHFDPCs (RT-PCR); type: cell-based, human; conditions: 10 µM, 50 µM, and 100 µM, 24 hours, FIGS. 4a and 4b

ASKVKVSMKF [peptide of Preparation Example 1, ASKVKVSMKF (Ala-Ser-Lys-Val-Lys-Val-Ser-Met-Lys-Phe)]
proliferation of HHFDPCs [1]: promoted the proliferation of HHFDPCs | proliferation of HHORSCs [2]: promoted the proliferation of HHORSCs | expression of LEF-1 [3]: increasing the expression | expression of Cyclin D1 (Cyclin D1): increasing the expression | expression of bFGF (bFGF): increasing the expression | expression of HGF (HGF): increasing the expression | expression of VEGF (VEGF): increasing the expression
